Test results: PubChem BioAssay AID2685 (National Center for Advancing Translational Sciences (NCATS), 2010)
The list shows a part of the results. These are further read-outs of the screen, such as a control signal, another cell line or another target. No call is given for them. Most of these compounds were active or inconclusive in the main read-out, so they are no random draw. Potencies come from curve fits of mixed quality, noted in brackets.

Test: qHTS Assay for Lipid Storage Modulators in Drosophila S3 Cells;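 as to cell number change: cells counted by Cell Tracker Red CMTPX staining in the red channel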
Conditions: BODIPY lipid droplet fluorescence, 18-24 h; for cell number change: measured here: cell count max response, cells fed with added oleic acid
How it was run: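 Drosophila S3 cells loaded with oleic acid (400 uM, as added) and compounds at several concentrations; lipid droplets imaged by 488-nm laser-scanning cytometry, 500–530 nm intensity and object ratio to cell channel. Percent activity normalized to 20 uM Triacsin C.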

[1] = measured here: lipid fluorescence (Fed channel) AC50, cells fed with added oleic acid
[2] = measured here: cell number channel AC50, cells fed with added oleic acid

Structure (SMILES)	cell number change	AC50 [1]	AC50 [2]
Cn1c(SCc2ccccc2)nnc1-c1ccc(O)cc1	-12.6%	0.58 µM [falling, single point]	–
O=C1C(Nc2ccccc2)=C(NS(=O)(=O)c2ccccc2)C(=O)c2ccccc21	-23.2%	2.06 µM [rising, partial curve]	2.06 µM [rising, partial curve]
CC1(C)CC(=NOC(=O)c2ccccc2)CC(C)(C)N1	-0.259%	6.51 µM [falling, single point]	6.51 µM [falling, single point]
CCOc1ccc(NC(=O)CN(C)C(=O)Cc2n[nH]c(=O)c3ccccc23)cc1OCC	-29.5%	29.1 µM [falling, single point]	–
CCOC(=O)c1cccc(NC(=O)CCS(=O)(=O)c2cccc3nsnc23)c1	12.6%	4.11 µM [rising, partial curve]	–
COc1ccc(C(C(=O)NCc2ccc(F)cc2)N(Cc2cccnc2)C(=O)c2snc(C(N)=O)c2N)cc1 (configuration not stated)	34.6%	0.517 µM [rising, partial curve]	–
O=C(c1cccc(OC2CCN(Cc3cccc(OCCO)c3)CC2)c1)N1CCCC1	25.5%	16.4 µM [rising, single point]	–
CCN(CC(=O)Nc1ccc(OC)cc1)C(=O)Cc1coc2cc(C)c(C)cc12	2.02%	29.1 µM [falling, partial curve, poor fit]	–
COc1cc(NC(=O)CCN2CCN(C/C=C/c3ccccc3)CC2)cc(OC)c1	-18.8%	–	–
Cc1cc(-c2n[nH]c(=S)n2-c2ccccc2C)cs1	3.06%	2.59 µM [rising, partial curve]	–
CCC(=O)N1CCN(c2cc(C)ccc2C)CC1	33.1%	–	18.4 µM [rising, single point]
COc1cccc([C@@H]2CC=C(C(=O)O)[C@H](c3ccc(Cl)cc3)N2S(=O)(=O)c2ccc(C)cc2)c1	1.39%	0.206 µM [rising, partial curve, poor fit]	–
O=C(CSc1nc2ccccc2o1)N1CCN(S(=O)(=O)c2ccc3ccccc3c2)CC1	-17.6%	–	–
CCN(c1ccccc1)S(=O)(=O)c1ccc(Cl)c(C(=O)N2CCCC2)c1	-12.7%	18.4 µM [falling, single point]	–
Cc1ccccc1-n1nc2c(c1NC(=O)c1c(-c3ccccc3Cl)noc1C)CS(=O)(=O)C2	–	0.58 µM [falling, single point]	–
CC/C(=N\Nc1ccccc1[N+](=O)[O-])c1ccc(O)cc1	-56.7%	23.1 µM [falling, partial curve]	25.9 µM [falling, partial curve]

Individual results from the results shown.
AC50 [1], `CC1(C)CC(=NOC(=O)c2ccccc2)CC(C)(C)N1` reads 6.51 µM [falling, single point]
AC50 [1], `Cc1ccccc1-n1nc2c(c1NC(=O)c1c(-c3ccccc3Cl)noc1C)CS(=O)(=O)C2` reads 0.58 µM [falling, single point]
